{
  "source": "paper PMC12724345",
  "binders": {"B1": {"name": "Arabidopsis SCE1 fused to SCFP^N (SCFP^N-SCE1) (enzyme, UniProt Q42551 1-160)", "chain": "MASGIARGRLAEERKSWRKNHPHGFVAKPETGQDGTVNLMVWHCTIPGKAGTDWEGGFFPLTMHFSEDYPSKPPKCKFPQGFFHPNVYPSGTVCLSILNEDYGWRPAITVKQILVGIQDLLDTPNPADPAQTDGYHLFCQDPVEYKKRVKLQSKQYPALV"}, "B2": {"name": "Arabidopsis SCE1 variant R14E/R18E/H21D (SCE1^SUM1), GAL4 two-hybrid fusion (enzyme, UniProt Q42551 1-160)", "chain": "MASGIARGRLAEEEKSWEKNDPHGFVAKPETGQDGTVNLMVWHCTIPGKAGTDWEGGFFPLTMHFSEDYPSKPPKCKFPQGFFHPNVYPSGTVCLSILNEDYGWRPAITVKQILVGIQDLLDTPNPADPAQTDGYHLFCQDPVEYKKRVKLQSKQYPALV"}, "B3": {"name": "Arabidopsis SCE1 (SUMO E2-conjugating enzyme 1), GAL4 AD fusion (enzyme, UniProt Q42551 1-160)", "chain": "MASGIARGRLAEERKSWRKNHPHGFVAKPETGQDGTVNLMVWHCTIPGKAGTDWEGGFFPLTMHFSEDYPSKPPKCKFPQGFFHPNVYPSGTVCLSILNEDYGWRPAITVKQILVGIQDLLDTPNPADPAQTDGYHLFCQDPVEYKKRVKLQSKQYPALV"}, "B4": {"name": "Arabidopsis SCE1 fused to CLuc (split-luciferase assay) (enzyme, UniProt Q42551 1-160)", "chain": "MASGIARGRLAEERKSWRKNHPHGFVAKPETGQDGTVNLMVWHCTIPGKAGTDWEGGFFPLTMHFSEDYPSKPPKCKFPQGFFHPNVYPSGTVCLSILNEDYGWRPAITVKQILVGIQDLLDTPNPADPAQTDGYHLFCQDPVEYKKRVKLQSKQYPALV"}},
  "key": {"[1]": {"target": "Rep of TYLCV isolate Alb13 fused to SCFP^C (Rep-SCFP^C) (tomato yellow leaf curl virus (TYLCV), isolate Alb13)", "assay": "split reporter; BiFC with halves of S(CFP)3A in agroinfiltrated N. benthamiana leaf epidermal cells, with P19; confocal microscopy 3 days post-infiltration; signal in nuclear bodies"}, "[2]": {"target": "Rep of TYLCV isolate Alb13 fused to SCFP^C (Rep-SCFP^C) (tomato yellow leaf curl virus (TYLCV), isolate Alb13)", "assay": "split reporter; multicolor BiFC in N. benthamiana: Rep-SCFP^C co-expressed with Venus^N-SUMO1 and SCFP^N-SCE1"}, "[3]": {"target": "Rep of TYLCV isolate Alb13, GAL4 two-hybrid fusion (tomato yellow leaf curl virus (TYLCV), isolate Alb13)", "assay": "two-hybrid; GAL4 system in S. cerevisiae PJ69-4α; Rep as GAL4 BD, SCE1 as GAL4 AD fusion; growth on -LWH with 1 mM 3AT, 30°C, 3 days"}, "[4]": {"target": "Rep V216/I217A, GAL4 BD fusion (tomato yellow leaf curl virus (TYLCV), isolate Almeria)", "assay": "two-hybrid; GAL4 system in S. cerevisiae PJ69-4α; Rep as GAL4 BD, SCE1 as GAL4 AD fusion; growth on -LWH with 1 mM 3AT, 30°C, 3 days"}, "[5]": {"target": "Rep I215/V216A, GAL4 BD fusion (tomato yellow leaf curl virus (TYLCV), isolate Almeria)", "assay": "two-hybrid; GAL4 system in S. cerevisiae PJ69-4α; Rep as GAL4 BD, SCE1 as GAL4 AD fusion; growth on -LWH with 1 mM 3AT, 30°C, 3 days"}, "[6]": {"target": "Rep I217A, GAL4 BD fusion (tomato yellow leaf curl virus (TYLCV), isolate Almeria)", "assay": "two-hybrid; GAL4 system in S. cerevisiae PJ69-4α; Rep as GAL4 BD, SCE1 as GAL4 AD fusion; growth on -LWH with 1 mM 3AT, 30°C, 3 days"}, "[7]": {"target": "Rep of TYLCV fused to NLuc (split-luciferase assay) (tomato yellow leaf curl virus (TYLCV), isolate Alb13)", "assay": "split reporter; split-luciferase complementation (SLUC) in agroinfiltrated N. benthamiana leaves, with P19; luminescence imaged 3 days post-infiltration; unfused luciferase halves as negative controls"}},
  "note": "Results are given in words; binding and its absence hold for the method and conditions named. For some assays here: A result given as binding can be weak or reduced; the word gives no strength. Tags and fused reporters may be left off the sequences shown. For some assays here: In cells and extracts the contact can be indirect.",
  "data": [
    {"binder": "B1", "values": [
      {"measurement": "binding", "setting": "[1]", "value": "binds"},
      {"measurement": "binding", "setting": "[2]", "value": "binds"}
    ]},
    {"binder": "B2", "values": [
      {"measurement": "binding", "setting": "[3]", "value": "no binding"}
    ]},
    {"binder": "B3", "values": [
      {"measurement": "binding", "setting": "[4]", "value": "no binding"},
      {"measurement": "binding", "setting": "[5]", "value": "no binding"},
      {"measurement": "binding", "setting": "[3]", "value": "binds"},
      {"measurement": "binding", "setting": "[6]", "value": "no binding"}
    ]},
    {"binder": "B4", "values": [
      {"measurement": "binding", "setting": "[7]", "value": "binds"}
    ]}
  ]
}
